Measurements reported in PubChem BioAssay AID602196 (INSERM, 2012).
Aim: 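Modifiers of cisplatin sensitivity in A549 cells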. Cell system: human A549 lung cancer cells. Reagents: siRNA pair against human genes. Time to read-out: 48 h transfection before cisplatin; time from cisplatin to read-out not stated. Treatment: cisplatin at a dose killing half of control-siRNA cells; exact dose and duration not given. Detection: 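Cisplatin cell death as a shift from the 50% death seen with control siRNA; siRNAs toxic or growth-blocking alone scored 0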. Reading the numbers: two-siRNA summed score (-2 to +2): higher = both siRNAs protect from cisplatin killing; -2 means both sensitise; mean protection from cisplatin (shift in death): higher = protection from cisplatin killing. Call rule: 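siRNAs harmful alone (LDH or WST-1) get 0; others get +1 for less and -1 for more cisplatin killing; genes are active when the two siRNAs give the same sign, summing to ±2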. Calls: active = both siRNAs shift cisplatin killing the same way; inactive = no consistent shift, or siRNA harmful alone.
The whole screen tested about 23,000 reagents; this is a random part of them. 455 of all reagents (2%) count as active. 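Active includes both protection and sensitisation; some change values fall well beyond the stated -50 to +50 range.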 Not all columns of the deposit are shown. Reagent sequences are not shown. Not stated in the record: the amount of reagent.

| gene symbol | two-siRNA summed score (-2 to +2) | mean protection from cisplatin (shift in death) (%) | Call |
| --- | --- | --- | --- |
| DIRAS3 | 0 | 4.7 | inactive |
| SPAG5 | 0 | -16.3 | inactive |
| LOC147166 | 0 | 1.5 | inactive |
| ASPM | 0 | 3.2 | inactive |
| PARP15 | 0 | 3 | inactive |
| SQLE | 0 | 6.7 | inactive |
| LOC390827 | 0 | 4.5 | inactive |
| MET | 0 | 2.1 | inactive |
| MOB3B | 0 | 0.2 | inactive |
| LOC285321 | 1 | 13.3 | inactive |
| CNKSR2 | 0 | 3.2 | inactive |
| TNRC6A | 0 | 14.1 | inactive |
| GOLPH3 | 0 | 1.4 | inactive |
| IQCF1 | 0 | 3 | inactive |
| CYRIB | 0 | -3.5 | inactive |
| ANG | 0 | 1 | inactive |
| ZNF560 | 0 | 3 | inactive |
| LOC440760 | 0 | -3.1 | inactive |
| MIMS2 | 0 | 9.8 | inactive |
| LOC388960 | 1 | 11.8 | inactive |
| TTC9B | 0 | 9.3 | inactive |
| VGLL1 | 0 | -2.1 | inactive |
| LOC200213 | 1 | 19.6 | inactive |
| LOC401921 | 1 | 14.8 | inactive |
| HBEGF | 0 | 15.7 | inactive |
| LOC339237 | 0 | 8.8 | inactive |
| TFAP4 | 1 | 8.8 | inactive |
| HMGA2 | 0 | -1.3 | inactive |
| TMEM245 | 1 | 6.1 | inactive |
| LOC401210 | 1 | 13 | inactive |
| COQ7 | 1 | 15.6 | inactive |
| GLYATL2 | 0 | 6.8 | inactive |
| RXFP4 | 0 | 2.6 | inactive |
| ADHFE1 | 1 | 14.2 | inactive |
| HAUS6 | 0 | 6.2 | inactive |
| CEP76 | 0 | 9.6 | inactive |
| LINC02139 | 0 | 7.7 | inactive |
| LOC390930 | 1 | 5.5 | inactive |
| OR2AT4 | 0 | 39.5 | inactive |
| LOC338661 | 0 | 9.4 | inactive |
| STAG3L1 | 0 | 7.3 | inactive |
| HSD17B7 | -1 | -14.4 | inactive |
| DBP | 1 | 12.3 | inactive |
| NPC1 | 0 | -2.7 | inactive |
| NDN | 0 | -12.4 | inactive |
| DRD4 | -1 | 1.6 | inactive |
| LINC01720 | 1 | 6.2 | inactive |
| BTBD3 | 0 | 0.5 | inactive |
| NR4A3 | 0 | 7.1 | inactive |
| GDI1 | 0 | 3 | inactive |
| CD72 | 0 | 14.6 | inactive |
| LOC401612 | 0 | 3.6 | inactive |
| FDFT1 | 0 | 5.7 | inactive |
| DDX50 | 1 | 3.7 | inactive |
| IDE | 0 | -0.6 | inactive |
| LOC442569 | 0 | 37.4 | inactive |
| RNF34 | 1 | 20.7 | inactive |
| ENTPD8 | 1 | 9.7 | inactive |
| LAMTOR5 | 1 | 17.2 | inactive |
| PLAAT4 | 0 | 8.1 | inactive |
| LOC441197 | 0 | 10.9 | inactive |
| FXYD4 | -1 | -5.3 | inactive |
| GUCY2D | -1 | -32.3 | inactive |
| OR1S1 | 2 | 23 | active |
| SLC35E4 | 0 | 3.3 | inactive |
| ZNF784 | 0 | -0.8 | inactive |
| IMMP2L | 0 | 2.5 | inactive |
| ADCY10P1 | 1 | 11.2 | inactive |
| COA5 | -1 | -7.1 | inactive |
| LOC402193 | 0 | 5.8 | inactive |
| CR1L | 1 | 20.3 | inactive |
| WWC3 | 0 | 0.2 | inactive |
| USP9Y | -1 | -11.6 | inactive |
